# Experimental data from PubChem BioAssay AID624297 (National Center for Advancing Translational Sciences (NCATS), 2012).
# Among all 340,000 compounds or so, about 6,200 (1.8%) were called active. This list was built around the results that the source calls inconclusive (neither active nor inactive); the mix of calls is not that of the screen. Calls come from the whole dose curve; as a rule, active = well fitted activation curve with a large enough effect; inconclusive = small, poorly fitted or top-dose-only effect; inactive = no such curve, though single readings can be large or run the other way. A potency beside an inconclusive call is a rough fit, not a confirmed value.
# Experiment: A quantitative high throughput screen for small molecules that induce DNA re-replication in SW480 colon adenocarcinoma cells. Note: nearly all actives have a fitted effect of over 55% in size.
# Conditions: Hoechst DNA content imaging, 48 h; series mostly up to 46.1 µM
# Summary of the method: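 250 cells/well; 23 nL cpd via pin tool; 48 hr, 37 C, 5% CO2; Hoechst 40 min; imager read of total nuclear intensity, ex 405/em 500-530 nm.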
# Potency is the fitted concentration of half-maximal effect.
row,SMILES,Potency
1,O=C(NC1CCN(S(=O)(=O)c2cccc([N+](=O)[O-])c2)CC1)C1CCCCC1,"inconclusive: 20.6 µM [activator, partial curve, poor fit]"
2,COc1ccc(S(=O)(=O)N2CCOC23CCN(C(=O)c2ccc(Cl)cc2Cl)CC3)cc1,"inconclusive: 29.1 µM [activator, single point]"
3,O=S(=O)(Nc1ccc2ccccc2c1)N1CCCCC1,"inconclusive: 29.1 µM [activator, single point]"
4,Cc1c(Cl)cccc1NC(=O)Cn1nnc(C(=O)NCc2cccs2)c1N,inactive
5,Cc1oc(-c2ccc(Cl)cc2)nc1CS(=O)CC(=O)NC1CCCC1 (centres undefined),inactive
6,COC(=O)c1cc(S(=O)(=O)NCC2CCN(Cc3ccc(C)cc3)CC2)cn1C,"inconclusive: 14.6 µM [activator, single point]"
7,Cc1[nH]c2ccccc2c1C(=O)CSc1nc2ccccc2[nH]1,"inconclusive: 29.1 µM [activator, single point]"
8,Cc1cc(NCCCn2ccnc2)n2ncc(-c3ccc(Cl)cc3)c2n1,"inconclusive: 29.1 µM [activator, partial curve, poor fit]"
9,O=c1[nH]c2cc3c(cc2cc1CN(Cc1ccccc1)Cc1nnnn1Cc1ccco1)OCCO3,"inconclusive: 29.1 µM [activator, single point]"
10,CCc1ccc(OCCNC(=O)c2ccccc2SCc2ccc(F)cc2)cc1,inactive
11,O=C(OCCOCCOC(=O)Oc1ccccc1)Oc1ccccc1,inactive
12,Cc1cc(C)c(C(=O)Nc2ccc(C)c(C)c2)c(CC(C)(C)C(=O)O)c1,"inconclusive: 0.82 µM [activator, full curve, poor fit]"
13,CNC[C@H]1Oc2ccc(NC(=O)Nc3ccccc3)cc2CC(=O)N([C@H](C)CO)C[C@H]1C,inactive
14,Cc1cccc(CN2CCCC(C(=O)c3ccc4c5c(cccc35)CC4)C2)n1 (centres undefined),"inconclusive: 29.1 µM [activator, single point]"
15,CCCNC(=O)NC(=O)CSc1nncs1,"inconclusive: 5.8 µM [activator, full curve]"
16,O=C(c1ccc(S(=O)(=O)Cc2ccccc2Cl)c([N+](=O)[O-])c1)N1CCN(c2ccccn2)CC1,"inconclusive: 18.4 µM [activator, single point]"
17,CCOC(=O)c1cc2c(=O)n3ccccc3nc2n(CCCOC)c1=NC(C)=O,"inconclusive: 29.1 µM [activator, single point]"
18,O=C(O)C1C2CCC(C2)C1C(=O)Nc1cccc([N+](=O)[O-])c1 (centres undefined),inactive
19,COC(=O)c1c(-c2ccccc2)csc1NC(=O)c1ccco1,"inconclusive: 29.1 µM [activator, single point]"
20,CCN(CC)S(=O)(=O)c1ccc(N2CCOCC2)c(NC(=O)COc2ccccc2)c1,inactive
21,COc1ccc(C(=O)Cn2c(NCCO)nc3ccccc32)cc1OC,"inconclusive: 29.1 µM [activator, single point]"
22,CCc1ccccc1NC(=O)CN(C)C(=O)CSc1nn(-c2ccccc2)c(=S)s1,"inconclusive: 32.6 µM [activator, partial curve, poor fit]"
23,CCC(Sc1nc(=O)cc(N)n1-c1cccc(C)c1)C(=O)Nc1cc(C)on1 (centres undefined),"inconclusive: 32.6 µM [activator, single point]"

row,SMILES,Potency
1,CCOC(=O)C1=CN(Cc2cccc(F)c2)S(=O)(=O)N(C)C1c1cccc(OC)c1 (centres undefined),"inconclusive: 29.1 µM [activator, single point]"
2,O=S(=O)(Nc1cc(Sc2cccc3cccnc23)c(O)c2ccccc12)c1ccccc1,active: 8.2 µM
3,CC1CCCN(C(=O)c2ccc([N+](=O)[O-])o2)C1 (centres undefined),"inconclusive: 29.1 µM [activator, single point]"
4,N#Cc1c(N)n(CCCN2CCOCC2)c2nc3ccccc3nc12,"inconclusive: 20.6 µM [activator, single point]"
5,CCOC(=O)C1=C(C)NC(C)=C(C(=O)OCC)C1C(=O)OCC(=O)N1CC(C)OC(C)C1 (centres undefined),"inconclusive: 3.26 µM [activator, single point]"
6,Cc1[nH]c(=S)c(C#N)c(C)c1Cc1ccc(Cl)cc1Cl,inactive
7,CCNS(=O)(=O)c1ccc(CCC(=O)N2CCc3ccccc3C2)cc1,inactive
8,Cc1cccc2cc3c(NC(=O)c4ccccn4)nn(C)c3nc12,"inconclusive: 6.51 µM [activator, partial curve, poor fit]"
9,Oc1cc(Nc2cccnc2)cc2cccnc12,"inconclusive: 4.61 µM [activator, full curve]"
10,COC(=O)c1ccccc1SC(CC(=O)c1ccccc1)c1ccc(F)cc1 (centres undefined),"inconclusive: 18.4 µM [activator, partial curve, poor fit]"
11,COC(=O)C1=C(C)N(c2ccc(F)c(Cl)c2)C(=O)C1,"inconclusive: 29.1 µM [activator, single point]"
12,Cc1ccccc1-n1nnnc1SC(C)C(=O)NC1CCCc2ccccc21 (centres undefined),"inconclusive: 11.6 µM [activator, partial curve, poor fit]"
13,O=C1/C(=C/c2ccccc2)N=C(N2CCOCC2)N1c1cccc(Cl)c1,"inconclusive: 20.6 µM [activator, single point]"
14,CN(C)c1nc(C=C(C#N)C#N)c(Cl)n1-c1ccc(F)cc1,active: 7.31 µM
15,CC1CN(C(=O)C2(C)CC2(Cl)Cl)CC(C)O1 (centres undefined),"inconclusive: 29.1 µM [activator, partial curve, poor fit]"
16,CN(C)Cc1c(C(=O)N/N=C/c2cccc(OCc3ccccc3)c2)nnn1-c1nonc1N,"inconclusive: 18.4 µM [activator, single point]"
17,COc1ccc(C(=O)Nc2ccc(S(=O)(=O)Nc3nccc(C)n3)cc2)cc1[N+](=O)[O-],inactive
18,CC(=O)C1CCC2C3CC(C)=C4CC(O)CCC4(C)C3CCC12C (centres undefined),"inconclusive: 29.1 µM [activator, single point]"
19,CCOC(=O)c1cc(-c2ccccc2)n(CC(=O)Nc2ccc(OCC)cc2)c1C,inactive
20,N#C/C(=C\c1ccncc1)c1nc2ccccc2c(=O)[nH]1,"inconclusive: 16.4 µM [activator, single point]"
21,COc1ccc(NS(=O)(=O)c2cc(NC(=O)c3cc(F)c(F)cc3Cl)ccc2N2CCOCC2)cc1,"inconclusive: 0.146 µM [activator, full curve, poor fit]"
22,CCN1CCc2c(sc(N)c2C(N)=O)C1,"inconclusive: 0.092 µM [activator, full curve, poor fit]"
23,Fc1ccccc1NC(=S)NCCc1ccc(Cl)cc1,inactive

row,SMILES,Potency
1,CCOC(=O)CC(=O)CSc1ccc2nnc(-c3cccc(F)c3)n2n1,inactive
2,O=C(CNC(=O)c1ccc(OC(F)F)cc1)NC1CCCc2ccccc21 (centres undefined),"inconclusive: 29.1 µM [activator, partial curve, poor fit]"
3,O=C(Oc1ccc(Cl)c2cccnc12)c1ccco1,"inconclusive: 29.1 µM [activator, single point]"
4,O=C(O)C1CCC(N2C(=O)C3C4CCC(C4)C3C2=O)CC1 (centres undefined),inactive
5,CCOC(=O)N1CCN(C(=O)C(NC(=O)c2ccc(C(C)(C)C)cc2)C(C)C)CC1 (centres undefined),"inconclusive: 29.1 µM [activator, single point]"
6,CC1(C)OC1COc1c2ccoc2cc2oc(=O)ccc12 (centres undefined),inactive
7,Cc1cc(N/N=C/c2ccccc2O)c2ccccc2n1,"inconclusive: 18.4 µM [activator, single point]"
8,Cn1ncc(Br)c1C(=O)Nc1c(F)c(F)cc(F)c1F,"inconclusive: 20.6 µM [activator, single point]"
9,O=S(=O)(c1ccc(SCc2ccccc2F)nc1)N1CCCC1,inactive
10,Cc1ccnc(NS(=O)(=O)c2ccc(NS(=O)(=O)c3ccc([N+](=O)[O-])cc3)cc2)n1,inactive
11,O=C(CSc1nc2nc(-c3cccs3)cc(C(F)(F)F)c2c(=O)[nH]1)Nc1ccc(F)c(F)c1,inactive
12,O=C1C(Cl)=C(NCCc2ccccc2)C(=O)c2ccccc21,active: 5.17 µM
13,CCCCNc1nc2cccnc2s1,"inconclusive: 23.1 µM [activator, single point]"
14,COc1ccc(/C=C(\C#N)c2nc3ccccc3[nH]2)cc1O,"inconclusive: 16.4 µM [activator, partial curve]"
15,COC(=O)CC(=O)CSc1nc2c(cc1C#N)CCC2,"inconclusive: 7.31 µM [activator, partial curve, poor fit]"
16,CC(C)(C)c1ccc(NC(=O)COC(=O)c2ccc(CN3CCCC3=O)cc2)cc1,"inconclusive: 29.1 µM [activator, single point]"
17,COc1ccc(Nc2cc(C)c3ccc(O)cc3n2)cc1,"inconclusive: 29.1 µM [activator, single point]"
18,Cc1cc(NC(=O)CSc2nnc(CNC(=O)c3ccccc3)o2)no1,"inconclusive: 29.1 µM [activator, single point]"
19,N/C(=N\OC(=O)c1ccccc1Cl)c1ccccn1,inactive
20,CN(C)c1ccc(NC(=O)CN2C(=O)CC(c3ccccc3)=Nc3ccccc32)cc1,inactive
21,COc1ccc(CCNC(=O)c2cccnc2)cc1,"inconclusive: 18.4 µM [activator, single point]"
22,COc1cc(OC)c(NC(=O)N2CCOCC2)cc1Cl,"inconclusive: 23.1 µM [activator, single point]"
23,NNC1=N[C@H]2CS(=O)(=O)C[C@H]2S1,"inconclusive: 0.164 µM [activator, partial curve, poor fit]"

# Shown tab-delimited: entries from further up.
row	SMILES	Potency
3	O=S(=O)(Nc1ccc2ccccc2c1)N1CCCCC1	inconclusive: 29.1 µM [activator, single point]
4	Cc1c(Cl)cccc1NC(=O)Cn1nnc(C(=O)NCc2cccs2)c1N	inactive
10	COC(=O)c1ccccc1SC(CC(=O)c1ccccc1)c1ccc(F)cc1 (centres undefined)	inconclusive: 18.4 µM [activator, partial curve, poor fit]
11	O=C(CSc1nc2nc(-c3cccs3)cc(C(F)(F)F)c2c(=O)[nH]1)Nc1ccc(F)c(F)c1	inactive
13	CCCCNc1nc2cccnc2s1	inconclusive: 23.1 µM [activator, single point]
18	Cc1cc(NC(=O)CSc2nnc(CNC(=O)c3ccccc3)o2)no1	inconclusive: 29.1 µM [activator, single point]
